Test results published in PMC11348129.
These are yes or no findings as the source states them, for the method shown. Binding seen in cells or lysates may run through a third protein. Some binding calls cover weakened binding; strength is not graded here.

Amino acid sequences for entries named in this document (tags omitted).
UniProt Q7Z434: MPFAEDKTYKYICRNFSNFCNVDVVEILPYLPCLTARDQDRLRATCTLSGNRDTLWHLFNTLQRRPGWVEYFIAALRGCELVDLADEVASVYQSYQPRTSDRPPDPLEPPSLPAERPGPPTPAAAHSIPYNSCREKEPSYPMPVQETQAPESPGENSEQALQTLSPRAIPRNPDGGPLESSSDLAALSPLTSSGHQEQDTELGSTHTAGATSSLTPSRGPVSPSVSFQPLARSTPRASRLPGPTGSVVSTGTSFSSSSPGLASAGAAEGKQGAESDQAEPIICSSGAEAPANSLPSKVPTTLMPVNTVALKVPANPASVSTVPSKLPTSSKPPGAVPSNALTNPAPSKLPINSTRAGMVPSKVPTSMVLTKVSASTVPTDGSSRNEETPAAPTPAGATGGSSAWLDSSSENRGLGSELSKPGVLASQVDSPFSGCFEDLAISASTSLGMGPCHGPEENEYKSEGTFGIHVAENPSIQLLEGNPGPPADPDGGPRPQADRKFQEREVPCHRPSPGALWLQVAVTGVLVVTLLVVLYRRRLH

Molecular target: MAVS, mitochondrial antiviral-signaling protein (endogenous) (human (endogenous in THP-1 and HEK293T)) (UniProt Q7Z434)
Experiment: co-IP; endogenous MAVS immunoprecipitated with anti-MAVS antibody (anti-IgG as control) and protein A/G magnetic beads from RIPA lysate of PMA-differentiated THP-1 macrophages, 4 °C; ZDHHC7 detected by immunoblot

B1: ZDHHC7 (endogenous) (enzyme, UniProt Q9NXF8 1-308)
chain: MQPSGHRLRDVEHHPLLAENDNYDSSSSSSSEADVADRVWFIRDGCGMICAVMTWLLVAYADFVVTFVMLLPSKDFWYSVVNGVIFNCLAVLALSSHLRTMLTDPGAVPKGNATKEYMESLQLKPGEVIYKCPKCCCIKPERAHHCSICKRCIRKMDHHCPWVNNCVGEKNQRFFVLFTMYIALSSVHALILCGFQFISCVRGQWTECSDFSPPITVILLIFLCLEGLLFFTFTAVMFGTQIHSICNDETEIERLKSEKPTWERRLRWEGMKSVFGGPPSLLWMNPFVGFRFRRLPTRPRKGGPEFSV
  binding: binds
